Some of the results follow.

Chains of the proteins cited; added tags and fusions are not shown. Lines headed by an entry give the natural chain unless they say otherwise; changes in a name come on top.
UniProt O60671: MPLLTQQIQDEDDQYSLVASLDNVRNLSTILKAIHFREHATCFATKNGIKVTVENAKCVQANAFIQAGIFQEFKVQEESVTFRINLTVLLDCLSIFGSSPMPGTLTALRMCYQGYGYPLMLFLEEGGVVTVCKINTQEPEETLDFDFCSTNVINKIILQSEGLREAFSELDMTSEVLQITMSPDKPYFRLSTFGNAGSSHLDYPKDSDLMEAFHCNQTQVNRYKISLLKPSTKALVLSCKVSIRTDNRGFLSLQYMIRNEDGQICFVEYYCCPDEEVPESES
UniProt Q96S59, whole entry, looked up: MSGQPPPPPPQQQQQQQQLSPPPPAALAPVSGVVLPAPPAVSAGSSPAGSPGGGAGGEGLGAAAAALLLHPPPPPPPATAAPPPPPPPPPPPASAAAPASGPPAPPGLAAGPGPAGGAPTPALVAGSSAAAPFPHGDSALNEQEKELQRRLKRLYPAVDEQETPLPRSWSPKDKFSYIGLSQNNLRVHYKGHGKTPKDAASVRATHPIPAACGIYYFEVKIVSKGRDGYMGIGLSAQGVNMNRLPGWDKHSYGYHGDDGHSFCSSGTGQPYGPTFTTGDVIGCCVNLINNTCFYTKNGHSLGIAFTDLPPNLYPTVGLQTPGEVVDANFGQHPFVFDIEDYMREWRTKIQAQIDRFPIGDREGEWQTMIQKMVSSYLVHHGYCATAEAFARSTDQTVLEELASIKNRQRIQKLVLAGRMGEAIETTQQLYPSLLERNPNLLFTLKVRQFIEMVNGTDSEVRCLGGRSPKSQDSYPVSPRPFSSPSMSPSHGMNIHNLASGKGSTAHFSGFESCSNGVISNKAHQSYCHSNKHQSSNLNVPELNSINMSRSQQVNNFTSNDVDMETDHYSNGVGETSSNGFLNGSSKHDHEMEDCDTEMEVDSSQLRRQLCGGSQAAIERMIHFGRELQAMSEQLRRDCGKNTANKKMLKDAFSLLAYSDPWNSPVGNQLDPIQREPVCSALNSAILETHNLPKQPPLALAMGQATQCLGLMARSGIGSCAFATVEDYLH
UniProt Q9UJ41, whole entry, looked up: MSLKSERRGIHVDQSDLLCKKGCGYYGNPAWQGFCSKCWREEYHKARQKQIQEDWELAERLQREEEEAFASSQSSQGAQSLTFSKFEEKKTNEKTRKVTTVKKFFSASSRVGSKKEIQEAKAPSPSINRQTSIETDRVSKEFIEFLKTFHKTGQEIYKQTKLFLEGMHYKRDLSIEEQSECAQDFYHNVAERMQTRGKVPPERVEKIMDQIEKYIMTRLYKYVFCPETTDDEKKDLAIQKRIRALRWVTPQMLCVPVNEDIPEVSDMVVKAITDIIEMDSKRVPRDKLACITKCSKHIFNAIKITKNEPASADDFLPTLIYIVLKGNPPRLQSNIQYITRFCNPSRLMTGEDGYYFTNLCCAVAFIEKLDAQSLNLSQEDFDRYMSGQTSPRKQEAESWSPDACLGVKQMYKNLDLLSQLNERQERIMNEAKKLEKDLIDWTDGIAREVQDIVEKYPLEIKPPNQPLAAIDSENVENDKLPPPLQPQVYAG
UniProt O60518: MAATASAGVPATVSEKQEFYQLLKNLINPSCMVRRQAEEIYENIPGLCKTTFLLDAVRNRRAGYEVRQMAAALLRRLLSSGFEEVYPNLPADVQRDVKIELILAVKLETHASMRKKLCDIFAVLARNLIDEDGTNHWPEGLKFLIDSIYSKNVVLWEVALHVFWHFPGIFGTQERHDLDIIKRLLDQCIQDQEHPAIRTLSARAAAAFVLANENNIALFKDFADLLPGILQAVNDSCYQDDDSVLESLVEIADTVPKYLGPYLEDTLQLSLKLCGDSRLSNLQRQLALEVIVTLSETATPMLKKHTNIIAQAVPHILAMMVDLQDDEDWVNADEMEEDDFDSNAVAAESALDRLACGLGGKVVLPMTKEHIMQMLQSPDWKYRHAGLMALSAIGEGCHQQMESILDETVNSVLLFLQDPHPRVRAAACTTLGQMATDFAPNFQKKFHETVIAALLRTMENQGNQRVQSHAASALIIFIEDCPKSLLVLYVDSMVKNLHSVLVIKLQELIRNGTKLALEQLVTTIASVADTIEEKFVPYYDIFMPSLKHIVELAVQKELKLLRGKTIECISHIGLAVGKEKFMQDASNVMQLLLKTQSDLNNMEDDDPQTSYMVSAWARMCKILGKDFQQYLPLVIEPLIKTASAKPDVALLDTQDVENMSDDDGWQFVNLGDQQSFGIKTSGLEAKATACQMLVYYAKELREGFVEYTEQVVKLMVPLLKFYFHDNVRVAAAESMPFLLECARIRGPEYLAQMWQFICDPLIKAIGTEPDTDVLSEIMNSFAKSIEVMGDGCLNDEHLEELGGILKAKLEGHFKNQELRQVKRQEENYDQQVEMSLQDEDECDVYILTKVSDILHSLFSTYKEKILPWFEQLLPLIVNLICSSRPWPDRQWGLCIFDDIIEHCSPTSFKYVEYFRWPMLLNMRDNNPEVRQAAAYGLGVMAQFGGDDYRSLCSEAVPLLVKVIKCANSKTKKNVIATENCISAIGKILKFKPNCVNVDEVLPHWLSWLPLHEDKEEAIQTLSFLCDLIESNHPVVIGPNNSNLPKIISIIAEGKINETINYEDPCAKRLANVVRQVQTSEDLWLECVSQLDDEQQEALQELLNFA
UniProt Q6GYQ0: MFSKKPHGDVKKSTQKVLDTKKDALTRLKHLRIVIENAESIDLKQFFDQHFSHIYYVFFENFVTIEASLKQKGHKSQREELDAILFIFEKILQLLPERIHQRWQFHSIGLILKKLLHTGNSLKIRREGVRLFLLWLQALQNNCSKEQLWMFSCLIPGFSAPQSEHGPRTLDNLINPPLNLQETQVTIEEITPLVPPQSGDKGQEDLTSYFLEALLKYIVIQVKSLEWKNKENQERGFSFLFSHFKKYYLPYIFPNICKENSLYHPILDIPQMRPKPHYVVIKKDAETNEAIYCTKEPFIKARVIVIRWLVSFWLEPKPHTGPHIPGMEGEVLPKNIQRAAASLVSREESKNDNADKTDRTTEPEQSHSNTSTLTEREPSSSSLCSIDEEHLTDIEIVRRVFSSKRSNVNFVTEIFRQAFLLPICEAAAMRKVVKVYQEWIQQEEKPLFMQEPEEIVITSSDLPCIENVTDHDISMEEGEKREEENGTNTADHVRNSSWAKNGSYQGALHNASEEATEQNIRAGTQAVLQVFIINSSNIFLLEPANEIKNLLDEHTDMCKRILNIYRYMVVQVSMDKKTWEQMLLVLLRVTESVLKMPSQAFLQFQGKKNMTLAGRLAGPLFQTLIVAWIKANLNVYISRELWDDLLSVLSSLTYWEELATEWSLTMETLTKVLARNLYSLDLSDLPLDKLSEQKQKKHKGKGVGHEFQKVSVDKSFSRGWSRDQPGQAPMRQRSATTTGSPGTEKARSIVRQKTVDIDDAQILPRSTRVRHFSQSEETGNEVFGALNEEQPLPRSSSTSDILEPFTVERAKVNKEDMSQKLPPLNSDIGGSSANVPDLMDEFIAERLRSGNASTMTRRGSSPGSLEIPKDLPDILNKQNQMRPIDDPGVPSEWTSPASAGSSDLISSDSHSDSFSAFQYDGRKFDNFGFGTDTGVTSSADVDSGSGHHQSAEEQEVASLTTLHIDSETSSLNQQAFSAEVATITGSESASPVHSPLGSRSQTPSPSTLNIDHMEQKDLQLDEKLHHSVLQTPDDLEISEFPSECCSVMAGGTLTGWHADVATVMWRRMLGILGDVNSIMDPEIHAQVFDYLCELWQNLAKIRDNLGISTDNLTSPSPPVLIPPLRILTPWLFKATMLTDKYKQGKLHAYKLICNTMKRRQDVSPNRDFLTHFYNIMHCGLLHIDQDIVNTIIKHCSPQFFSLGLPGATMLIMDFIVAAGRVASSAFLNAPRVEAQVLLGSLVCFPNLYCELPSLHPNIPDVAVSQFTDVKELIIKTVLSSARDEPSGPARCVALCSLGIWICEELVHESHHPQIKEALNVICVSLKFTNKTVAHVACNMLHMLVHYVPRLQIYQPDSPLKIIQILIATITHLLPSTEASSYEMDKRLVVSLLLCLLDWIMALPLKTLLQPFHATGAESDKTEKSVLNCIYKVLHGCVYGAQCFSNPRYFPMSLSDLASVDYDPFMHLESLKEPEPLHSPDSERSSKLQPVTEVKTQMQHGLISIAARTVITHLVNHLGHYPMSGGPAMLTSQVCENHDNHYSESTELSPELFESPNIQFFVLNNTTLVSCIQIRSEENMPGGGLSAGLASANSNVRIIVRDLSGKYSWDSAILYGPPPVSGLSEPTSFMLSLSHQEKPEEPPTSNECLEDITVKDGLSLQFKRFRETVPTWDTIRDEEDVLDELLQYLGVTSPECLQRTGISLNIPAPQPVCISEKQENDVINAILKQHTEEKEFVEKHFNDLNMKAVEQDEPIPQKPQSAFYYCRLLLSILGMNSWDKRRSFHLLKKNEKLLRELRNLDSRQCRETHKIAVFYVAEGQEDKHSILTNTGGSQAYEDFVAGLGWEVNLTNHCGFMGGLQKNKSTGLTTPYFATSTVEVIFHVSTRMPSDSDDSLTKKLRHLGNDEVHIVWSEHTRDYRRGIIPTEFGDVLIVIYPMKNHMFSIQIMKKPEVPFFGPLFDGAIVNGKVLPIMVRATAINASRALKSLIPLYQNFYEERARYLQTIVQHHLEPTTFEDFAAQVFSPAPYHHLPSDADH
UniProt Q9UI14, whole entry, looked up: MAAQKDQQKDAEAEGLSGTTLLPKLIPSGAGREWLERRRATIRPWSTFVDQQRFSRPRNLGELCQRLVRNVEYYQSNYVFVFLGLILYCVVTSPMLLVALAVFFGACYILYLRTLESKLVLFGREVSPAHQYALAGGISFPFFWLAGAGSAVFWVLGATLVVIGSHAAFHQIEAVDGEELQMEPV
UniProt Q9NRW1: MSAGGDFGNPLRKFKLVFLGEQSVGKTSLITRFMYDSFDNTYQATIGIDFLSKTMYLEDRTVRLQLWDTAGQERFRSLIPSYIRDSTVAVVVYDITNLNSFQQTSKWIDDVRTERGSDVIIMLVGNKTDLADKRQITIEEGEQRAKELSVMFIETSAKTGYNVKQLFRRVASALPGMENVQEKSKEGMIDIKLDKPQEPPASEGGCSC
UniProt P20339: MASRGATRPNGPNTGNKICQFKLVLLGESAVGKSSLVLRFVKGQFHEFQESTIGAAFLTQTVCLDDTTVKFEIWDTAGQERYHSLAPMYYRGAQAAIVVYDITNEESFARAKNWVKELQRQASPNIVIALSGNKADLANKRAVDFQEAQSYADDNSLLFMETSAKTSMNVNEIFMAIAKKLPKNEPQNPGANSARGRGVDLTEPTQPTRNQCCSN
UniProt Q969Q5: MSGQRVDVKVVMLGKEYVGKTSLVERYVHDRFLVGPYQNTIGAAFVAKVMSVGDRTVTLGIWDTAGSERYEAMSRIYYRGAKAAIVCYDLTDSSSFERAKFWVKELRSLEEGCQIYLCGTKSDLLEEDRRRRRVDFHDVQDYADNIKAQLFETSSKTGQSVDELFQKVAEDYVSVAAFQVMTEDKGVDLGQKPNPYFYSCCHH
UniProt Q53H96: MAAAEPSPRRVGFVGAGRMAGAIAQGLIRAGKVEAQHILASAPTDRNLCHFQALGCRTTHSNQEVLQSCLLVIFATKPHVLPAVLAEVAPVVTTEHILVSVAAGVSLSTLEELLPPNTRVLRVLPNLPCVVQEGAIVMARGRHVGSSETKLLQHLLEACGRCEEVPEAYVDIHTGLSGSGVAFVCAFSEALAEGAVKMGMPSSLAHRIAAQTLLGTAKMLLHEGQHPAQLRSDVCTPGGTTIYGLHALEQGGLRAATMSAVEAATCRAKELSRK
UniProt P61225: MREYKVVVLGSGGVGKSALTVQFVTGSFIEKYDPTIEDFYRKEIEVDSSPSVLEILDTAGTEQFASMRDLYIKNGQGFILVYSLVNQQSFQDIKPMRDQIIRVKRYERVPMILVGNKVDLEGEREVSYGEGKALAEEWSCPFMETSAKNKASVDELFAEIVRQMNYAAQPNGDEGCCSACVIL
UniProt Q92930: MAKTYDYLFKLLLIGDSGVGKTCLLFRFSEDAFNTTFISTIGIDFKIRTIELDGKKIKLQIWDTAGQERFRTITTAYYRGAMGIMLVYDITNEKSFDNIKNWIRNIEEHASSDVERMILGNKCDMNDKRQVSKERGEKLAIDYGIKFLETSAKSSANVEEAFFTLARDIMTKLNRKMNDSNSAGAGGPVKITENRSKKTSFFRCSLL
UniProt P20340: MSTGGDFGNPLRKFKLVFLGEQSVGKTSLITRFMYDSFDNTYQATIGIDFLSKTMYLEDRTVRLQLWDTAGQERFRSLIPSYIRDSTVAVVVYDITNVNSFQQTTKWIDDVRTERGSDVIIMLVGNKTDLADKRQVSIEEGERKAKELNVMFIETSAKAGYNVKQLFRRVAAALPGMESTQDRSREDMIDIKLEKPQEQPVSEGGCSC
UniProt Q9Y3L5: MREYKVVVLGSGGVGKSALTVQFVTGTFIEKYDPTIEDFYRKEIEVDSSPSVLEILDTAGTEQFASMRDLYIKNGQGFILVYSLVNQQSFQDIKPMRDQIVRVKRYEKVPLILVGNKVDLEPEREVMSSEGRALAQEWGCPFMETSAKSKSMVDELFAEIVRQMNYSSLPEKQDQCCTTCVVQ

Compound in the test: C1CCN(C1)C(=O)NC2=CC=CC(=C2)NC3=NC=C(C(=N3)NCCC4=CN=CN4)Br
Briefly: log2 fold change, soluble protein after heating vs DMSO (PISA); higher = thermal stabilisation; K562 lysate, 10 uM; active = over 0.2 and 3.5 SD of the protein, either way, in both replicates (recomputed). Summed up: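 The values are log-two fold changes in thermal stability compared with solvent controls and come from duplicates. They were obtained by TMTpro 16plex LC-MS/MS, with channel sums equalised, on the supernatant after 21,000xg for 90 min. That supernatant came from crude K562 extract at 1 mg/mL protein treated with 10 μM compound for 30 min, heated for 3 min across 48°C-58°C, pooled and brought to 0.5% NP-40 at 4°C.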
With RACGAP1 (UniProt Q9H0H5), the log2 fold change was inactive: -0.035.

Regarding RAD1 (UniProt O60671), the log2 fold change was inactive: -0.008.

For RAC2 (UniProt P15153), the log2 fold change is inactive: 0.069.

For RABEPK (UniProt Q7Z6M1), the log2 fold change was inactive: -0.03.

As to RANBP9 (UniProt Q96S59), the log2 fold change was inactive: -0.007.

Regarding RAD51C (UniProt O43502), the log2 fold change is inactive: 0.017.

With RABGEF1 isoform 3 (UniProt Q9UJ41), the log2 fold change was inactive: 0.041.

In the case of RANBP6 (UniProt O60518), the log2 fold change is inactive: 0.044.

For RABEP1 (UniProt Q15276), the log2 fold change was inactive: -0.009.

Turning to RALGAPA1 isoform 6 (UniProt Q6GYQ0), the log2 fold change is inactive: -0.042.

On to RABAC1 (UniProt Q9UI14), for which the log2 fold change is inactive: 0.024.

For the target RAB5B (UniProt P61020), the log2 fold change was inactive: 0.027.

As to RAB6B (UniProt Q9NRW1), the log2 fold change was inactive: 0.025.

As to RAB5A (UniProt P20339), the log2 fold change is inactive: -0.008.

On to RAB24 (UniProt Q969Q5), for which the log2 fold change is inactive: -0.03.

As for PYCR3 (UniProt Q53H96), the log2 fold change is inactive: 0.037.

For the target RAB10 (UniProt P61026), the log2 fold change is inactive: -0.013.

Turning to RAN (UniProt P62826), the log2 fold change was inactive: 0.02.

Regarding RAP2B (UniProt P61225), the log2 fold change was inactive: -0.028.

Regarding RAB8B (UniProt Q92930), the log2 fold change is inactive: 0.

For the target RAB6A isoform 4 (UniProt P20340), the log2 fold change was inactive: 0.003.

For RAB20 (UniProt Q9NX57), the log2 fold change was inactive: -0.191.

In the case of RAP2C (UniProt Q9Y3L5), the log2 fold change was inactive: 0.005.

For the origin of these results see the supplement of paper PMC10849652.
